# According to PubChem BioAssay AID1487 (National Center for Advancing Translational Sciences (NCATS), 2009):
# Some of the results follow. Shown are side measurements of this screen, not its main read-out; they come without a call. Compounds called inactive in the main read-out are mostly missing here. Potencies come from curve fits of mixed quality, noted in brackets.
# Experiment: qHTS Assay for Modulators of Lamin A Splicing
# Details: HeLa LMNA splicing GFP/RFP minigene ratio, 48 h
# In short: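 S3 HeLa stable clones carrying a lamin A-EGFP splicing minigene plus DsRed2 were seeded at 600 cells/well in Opti-MEM with 2% FBS, pin-dosed and incubated 48 h at 37°C. Acumen cytometry (488 nm) gave the GFP/RFP total-intensity ratio.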
# [1] = measured here: GFP splicing reporter channel
# [2] = measured here: RFP viability control channel
SMILES,AC50 [1],AC50 [2]
O=C(CCCN1C(=O)c2cccnc2C1=O)Nc1ccccc1F,"4.47 µM [rising, partial curve, poor fit]","3.55 µM [rising, partial curve]"
COc1ccc(N2C(=O)CCSC23C(=O)N(Cc2ccc(F)cc2)c2ccccc23)cc1 (stereo unspecified),"35.5 µM [falling, partial curve, poor fit]","1.41 µM [falling, full curve]"
Cc1ccc2oc(=O)n(CCCOc3ccccc3)c2c1,"35.5 µM [rising, single point]",
O=C(O/N=C1\CCCc2ccccc21)C1CC1,,"0.126 µM [rising, full curve]"
CC1CN(Cc2csc(-c3ccc(Cl)cc3)n2)CC(C)O1 (stereo unspecified),,"0.00316 µM [falling, full curve, poor fit]"
O=C(NO)c1ccc(C(=O)N(C2CCCCC2)C2CCCCC2)cc1,"11.2 µM [rising, partial curve, poor fit]","8.91 µM [rising, partial curve, poor fit]"
CCCCc1ccc(NC(=S)NCCO)cc1,,"0.891 µM [falling, full curve, poor fit]"
Cc1nn(-c2ccc(F)cc2)c2sc(C(=O)N3CCCCCC3)cc12,,"31.6 µM [rising, single point]"
OC(COc1c(F)cc(Br)cc1F)CN1CCN(c2ccc(F)cc2)CC1 (stereo unspecified),"15.8 µM [rising, single point]","7.94 µM [rising, partial curve]"
CC(C)(Oc1ccc(Cl)cc1)C(=O)N1CCN(c2ccccn2)CC1,,"35.5 µM [rising, single point]"
Cc1ccc(NS(=O)(=O)c2ccc3c(c2)CC(C)N3C(=O)C2CCC2)cc1Cl (stereo unspecified),,"35.5 µM [rising, single point]"
COc1ccc2c3c(cccc13)C(=O)N(O)C2=O,"5.62 µM [rising, partial curve]","7.94 µM [rising, partial curve]"
COc1ccc(O)c(/C=N/NC(=O)c2ccc(CSc3nc(C)cc(C)n3)cc2)c1,,"12.6 µM [rising, partial curve]"
CCOc1ccc(NC(=O)C2CCCN2C(=O)OCc2ccccc2)cc1 (stereo unspecified),"0.0141 µM [falling, full curve]","0.0562 µM [falling, full curve, poor fit]"
CCOC(=O)C1CCN(c2nc3ccccc3nc2C(C#N)C(=O)NCCc2ccccc2)CC1 (stereo unspecified),"35.5 µM [rising, single point]","7.94 µM [rising, partial curve, poor fit]"
CCN1CCN(CC(O)COc2ccc3c(c2)CCC3)CC1 (stereo unspecified),"25.1 µM [rising, single point]",
Cc1cccc(NC(=O)NNC(=O)c2nn(C)cc2Br)c1,"4.47 µM [falling, partial curve]","3.16 µM [falling, partial curve, poor fit]"
O=C(CSc1ccc2c(c1)OCCO2)NC(=O)NC1CCCC1,"35.5 µM [rising, single point]","35.5 µM [rising, single point]"
CN(C)S(=O)(=O)N1CCN(CC(=O)Nc2cc(Cl)ccc2Cl)CC1,,"2.51 µM [rising, partial curve]"
Cc1ccc2nc3sc(C(=O)NCc4ccco4)c(N)c3cc2c1,"20 µM [falling, single point]","15.8 µM [falling, single point]"
CCCOc1ccc(CSCCNC(=S)Nc2ccccc2)cc1,,"35.5 µM [rising, single point]"
O=c1c(-c2cccs2)nc2cnc(N3CCNCC3)nc2n1Cc1cccs1,,"15.8 µM [falling, partial curve]"
CC(Oc1ccc(Cl)cc1Cl)C(=O)NNC(=O)C(=O)N1CCCCC1 (stereo unspecified),"35.5 µM [rising, single point]","22.4 µM [rising, single point]"
CC(N)=O,,"0.00562 µM [falling, full curve, poor fit]"
O=C1CCN2C=Nc3cccc4ccc1c2c34,"8.91 µM [falling, partial curve, poor fit]","5.62 µM [falling, partial curve, poor fit]"
CC(C)C(=O)Nc1ccc(S(=O)(=O)Nc2nccc(/C=C/c3ccccc3)n2)cc1,"6.31 µM [falling, single point]","35.5 µM [rising, single point]"
CCSC1=C(C#N)C2(CCCCC2)C(C#N)C(=O)N1 (stereo unspecified),"8.91 µM [rising, partial curve]",
COCCCNCCOCCOc1ccc(Cl)cc1C(C)(C)C,"31.6 µM [rising, single point]","35.5 µM [rising, single point]"

# Grouped by structure, those above containing two or more sulfur atoms (two)
SMILES,AC50 [1],AC50 [2]
CCCOc1ccc(CSCCNC(=S)Nc2ccccc2)cc1,,"35.5 µM [rising, single point]"
O=c1c(-c2cccs2)nc2cnc(N3CCNCC3)nc2n1Cc1cccs1,,"15.8 µM [falling, partial curve]"

# Continued:

SMILES,AC50 [1],AC50 [2]
OCCNc1nc(C2CC2)nc2c1nnn2Cc1ccccc1Cl,,"35.5 µM [rising, single point]"
O=C(c1ccc2c(c1)CCCC2)N1CCN(c2nc3c(F)cccc3s2)CC1,"0.178 µM [falling, full curve, poor fit]",
COc1ccc(N2C(=O)CC2(/C=C/c2ccccc2OC)C(=O)NC2CCCC2)cc1 (stereo unspecified),,"22.4 µM [rising, partial curve, poor fit]"
CCOC(=O)c1ccccc1NC(=O)c1ccc2c(=O)n3c(nc2c1)CCCCC3,"22.4 µM [falling, single point]","22.4 µM [falling, single point]"
CCc1cccc(NC(=O)c2cc3c(=O)n(Cc4ccc(OC)cc4)ccc3nc2C)c1,"0.00501 µM [falling, full curve, poor fit]",
Cc1ccc(Oc2ccccc2/C=N/O)cc1,,"12.6 µM [rising, partial curve]"
CCN(CC(=O)Nc1ccccc1Br)C1CCCCC1,"0.0224 µM [falling, full curve, poor fit]","0.2 µM [falling, full curve]"
CCCCOc1ccc(C(=O)Nc2ccc(N3CCN(C(=O)C(C)C)CC3)cc2)cc1,,"15.8 µM [rising, partial curve]"
Cn1cc(CC(=O)NCCN2CCOCC2)c2ccccc21,"5.01 µM [rising, partial curve, poor fit]",
Cc1ccc(C(=O)N2NC(c3ccccc3F)C3C(=O)N(c4cccc(C)c4)C(=O)C32)cc1 (stereo unspecified),"5.01 µM [falling, full curve, poor fit]","15.8 µM [falling, partial curve]"
COc1ccc(C(=O)c2ccccc2)c2c(O)ccc(C(=O)c3ccccc3)c12,,"2.82 µM [rising, full curve]"
CC1CCCN(CCOCCOc2ccc(Br)cc2Cl)C1 (stereo unspecified),,"20 µM [rising, partial curve, poor fit]"
CC1Cc2ccccc2N1C(=O)COc1cccc(-n2cnnn2)c1 (stereo unspecified),"0.282 µM [rising, full curve, poor fit]","5.01 µM [rising, partial curve, poor fit]"
CN(C)C(=O)c1ccc(-c2ccc3ncnc(N4CCOCC4)c3c2)cc1,,"11.2 µM [falling, partial curve]"
CCOc1ccccc1N1CCN(C(=O)c2cccc(-c3ccc(O)cc3)c2)CC1,,"0.0891 µM [rising, full curve, poor fit]"
COc1cccc(NC(=O)C2CCC(CNS(=O)(=O)c3cccs3)CC2)c1 (stereo unspecified),"0.708 µM [rising, single point]",
CCN(CC)c1ccc([C@H]2[C@@H]3CCCC[C@]3(O)CCN2CC(=O)NCc2ccco2)cc1,,"2.24 µM [falling, partial curve, poor fit]"
CCn1c2ccccc2c2cc(/C=N/n3cnnc3)ccc21,,"15.8 µM [rising, partial curve, poor fit]"
Cc1ccc(NC(=S)N(CCN(C)C)Cc2cccs2)cc1,"1.26 µM [falling, full curve]","0.316 µM [falling, partial curve]"
O=C(NCc1cccs1)c1ccc(Cn2c(SCc3cccc(F)c3)nc3cccnc32)cc1,"35.5 µM [falling, partial curve, poor fit]",
CC[C@@H](C)[C@H](NC(=O)OC(C)(C)C)c1nnc(S(=O)(=O)Cc2cc(C)ccc2C)o1,,"22.4 µM [rising, partial curve]"
O=C(/C=C/c1cccc(Br)c1)N1CCN(c2cccc(C(F)(F)F)c2)CC1,"35.5 µM [rising, single point]","31.6 µM [rising, single point]"
COC(=O)[C@@]1(Cc2ccc(F)cc2)[C@H]2c3cc(C(=O)N(C)C)n(Cc4ccccc4)c3C[C@H]2CN1C(=O)c1ccccc1,"10 µM [rising, partial curve]","20 µM [rising, single point]"
CCOC(=O)c1c(NC(=O)c2cc3nc(-c4ccc(OC)cc4)cc(C(F)(F)F)n3n2)sc2c1CCC(C)C2 (stereo unspecified),,"0.447 µM [falling, full curve, poor fit]"
COc1cc(C2C=C(c3cccs3)Nc3ncnn32)cc(OC)c1OC (stereo unspecified),,"1.12 µM [rising, full curve]"
O=S(=O)(NC1CCCCC1)c1cccc(-c2nnc(-c3ccccc3)o2)c1,,"35.5 µM [rising, single point]"
CCN1C(=S)SC(=O)C1=C1C=C(C)N(CCOC)C(C)=C1,,"10 µM [rising, partial curve, poor fit]"
